Patent publication US20090137484A1, “Neuronal Network-Interacting Peptide” (NATIONAL UNIVERSITY OF SINGAPORE, priority 2004, published 2009)
No constants are given. Whether binding was seen depends on the method and setting. Some results given as binding are weak or reduced against the parent protein; the word gives no strength.

Amino acid sequences for entries named in this document (tags omitted). Residues count along the entry.
UniProt O43639, residues 199-257: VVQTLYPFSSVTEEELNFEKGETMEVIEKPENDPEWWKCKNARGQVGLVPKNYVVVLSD

How the values were obtained:
[1] = biological target: third Grb4 SH3 domain, Grb4 residues 199-257 (human) (UniProt O43639); experiment: ITC
[2] = biological target: third Grb4 SH3 domain, Grb4 residues 199-257 (human) (UniProt O43639); experiment: NMR HSQC titration

Row | Binder | binding [1] | binding [2]
1 | ARPPPPPPAS (N-terminal acetyl (Ac-), C-terminal amide (-NH2)) [Nogo-A (141-150) Ac-…-NH2] | binds | binds
2 | STPAAPKRRGS (N-terminal acetyl (Ac-), C-terminal amide (-NH2)) [Nogo-A (171-181) Ac-…-NH2] | binds | binds
